PubChem BioAssay AID504791 | Drosophila RNAi Screening Center | 2011
The screen tested about 23,000 reagents; below is an unselected part of those with a known target gene and a result. Over the whole deposit, 199 (0.86%) got an active call. 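Plate-scaled ratios behind the calls are not deposited; printed light signals are raw; many rows marked increased or decreased are still called inactive.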 A number with no mark means an inactive call. Names joined by + are all predicted targets of the reagent. No sequences are given here. Not given: the direction of the score.

- Aim: 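Genes whose knock-down strengthens or weakens small-RNA reporter silencing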 (primary screen)
- Cells: Drosophila S2-derived reporter cells
- Knock-down reagent: long dsRNA against Drosophila genes, about 150-250 ng dsRNA per well (siRNA assay); about 80-120 ng (miRNA assay)
- Time to read-out: about 5 days (siRNA assay); about 4 days (miRNA assay)
- Treatment: copper sulfate induction of reporters: 25 µM (siRNA assay); 200 mM stated (miRNA assay), 1-2 days before reading
- Detection: 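Per-well ratio of Renilla over firefly light, expressed relative to that plate's average ratio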
- Active means: 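a well was a first-pass pick when its plate-scaled ratio rose above 1.5 (siRNA assay) or 1.6 (miRNA assay), or dropped below 0.6; a gene counted only if two separate dsRNAs agreed on retest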

betaNACtes2 [DRSC19792] → stable assay Renilla, run 1 (luminescence) = 4607; stable assay firefly, run 1 (luminescence) = 4.06e5
CG8229 [DRSC07114] → miRNA reporter change = reporter ratio lowered past the hit cutoff; stable assay Renilla, run 1 (luminescence) = 7755; stable assay firefly, run 1 (luminescence) = 4.00e5
d4 [DRSC04881] → stable assay Renilla, run 1 (luminescence) = 11776; stable assay firefly, run 1 (luminescence) = 1.28e6
d4 [DRSC22674] → stable assay Renilla, run 1 (luminescence) = 4775; stable assay firefly, run 1 (luminescence) = 5.27e5
Mat1 [DRSC07465] → stable assay Renilla, run 1 (luminescence) = 5887; stable assay firefly, run 1 (luminescence) = 3.51e5
CG7766 [DRSC18424] → stable assay Renilla, run 1 (luminescence) = 7707; stable assay firefly, run 1 (luminescence) = 4.50e5
CG7715 [DRSC16301] → stable assay Renilla, run 1 (luminescence) = 6434; stable assay firefly, run 1 (luminescence) = 3.55e5
Ercc1 [DRSC07424] → stable assay Renilla, run 1 (luminescence) = 8259; stable assay firefly, run 1 (luminescence) = 3.18e5
CG14591 [DRSC04868] → stable assay Renilla, run 1 (luminescence) = 7187; stable assay firefly, run 1 (luminescence) = 4.14e5
Rab9Db + Rab9D + Rab9Fa + 1 more [DRSC17662] → stable assay Renilla, run 1 (luminescence) = 4431; stable assay firefly, run 1 (luminescence) = 3.30e5
Nepl11 [DRSC12333] → stable assay Renilla, run 1 (luminescence) = 6512; stable assay firefly, run 1 (luminescence) = 4.62e5
CG7916 [DRSC01901] → stable assay Renilla, run 1 (luminescence) = 7599; stable assay firefly, run 1 (luminescence) = 3.12e5
Rab7 [DRSC16810] → stable assay Renilla, run 1 (luminescence) = 7312; stable assay firefly, run 1 (luminescence) = 2.72e5
Prp8 [DRSC07293] → stable assay Renilla, run 1 (luminescence) = 11184; stable assay firefly, run 1 (luminescence) = 3.85e5
stj [DRSC06124] → stable assay Renilla, run 1 (luminescence) = 9934; stable assay firefly, run 1 (luminescence) = 4.21e5
Mis12 [DRSC10299] → stable assay Renilla, run 1 (luminescence) = 5476; stable assay firefly, run 1 (luminescence) = 3.80e5
l(2)37Bb [DRSC02088] → stable assay Renilla, run 1 (luminescence) = 5219; stable assay firefly, run 1 (luminescence) = 3.94e5
Dgat2 [DRSC06803] → stable assay Renilla, run 1 (luminescence) = 7319; stable assay firefly, run 1 (luminescence) = 4.06e5
ics [DRSC01878] → stable assay Renilla, run 1 (luminescence) = 6442; stable assay firefly, run 1 (luminescence) = 1.25e6
spz6 [DRSC04533] → stable assay Renilla, run 1 (luminescence) = 42412; stable assay firefly, run 1 (luminescence) = 2.39e6
CNBP [DRSC04116] → stable assay Renilla, run 1 (luminescence) = 7656; stable assay firefly, run 1 (luminescence) = 6.09e5
CNBP [DRSC04419] → stable assay Renilla, run 1 (luminescence) = 7759; stable assay firefly, run 1 (luminescence) = 7.10e5
CNBP [DRSC21317] → stable assay Renilla, run 1 (luminescence) = 9885; stable assay firefly, run 1 (luminescence) = 5.30e5
Atg10 + CG12822 [DRSC06796] → stable assay Renilla, run 1 (luminescence) = 7331; stable assay firefly, run 1 (luminescence) = 3.97e5
Ccs [DRSC06692] → stable assay Renilla, run 1 (luminescence) = 6632; stable assay firefly, run 1 (luminescence) = 3.70e5
CG18628 [DRSC10328] → stable assay Renilla, run 1 (luminescence) = 8455; stable assay firefly, run 1 (luminescence) = 4.27e5
Pp1alpha-96A [DRSC16795] → stable assay Renilla, run 1 (luminescence) = 8295; stable assay firefly, run 1 (luminescence) = 3.69e5
Pp1alpha-96A [DRSC23320] → stable assay Renilla, run 1 (luminescence) = 4436; stable assay firefly, run 1 (luminescence) = 3.29e5
sand [DRSC07245] → stable assay Renilla, run 1 (luminescence) = 7275; stable assay firefly, run 1 (luminescence) = 4.12e5
Ccdc39 [DRSC12286] → stable assay Renilla, run 1 (luminescence) = 7338; stable assay firefly, run 1 (luminescence) = 4.08e5
PIP5K59B [DRSC04290] → stable assay Renilla, run 1 (luminescence) = 97257; stable assay firefly, run 1 (luminescence) = 2.74e5
PIP5K59B [DRSC04403] → stable assay Renilla, run 1 (luminescence) = 7236; stable assay firefly, run 1 (luminescence) = 3.43e5
CecC [DRSC16606] → stable assay Renilla, run 1 (luminescence) = 5947; stable assay firefly, run 1 (luminescence) = 3.72e5
TTLL3A [DRSC02143] → stable assay Renilla, run 1 (luminescence) = 9611; stable assay firefly, run 1 (luminescence) = 4.93e5
PpD6 [DRSC00774] → stable assay Renilla, run 1 (luminescence) = 7854; stable assay firefly, run 1 (luminescence) = 5.73e5
PpD6 [DRSC23331] → stable assay Renilla, run 1 (luminescence) = 4556; stable assay firefly, run 1 (luminescence) = 3.08e5

Taken from above.
CG7766 [DRSC18424], stable assay Renilla, run 1 (luminescence): 7707
Entry of CNBP [DRSC04419] in “stable assay Renilla, run 1 (luminescence)”: 7759
For “stable assay firefly, run 1 (luminescence)”, Ercc1 [DRSC07424] shows 3.18e5
